From paper PMC8907713 come the findings set out here.

Sequences of proteins named here, by UniProt entry; tags and fusion partners are left off. Residues count along the entry.
UniProt Q8S926, residues 1-118: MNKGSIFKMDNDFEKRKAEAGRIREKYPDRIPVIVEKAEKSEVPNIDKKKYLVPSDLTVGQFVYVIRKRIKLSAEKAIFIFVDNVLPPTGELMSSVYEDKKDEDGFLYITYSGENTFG

These are yes or no findings as the source states them, for the method shown. In cells and extracts the contact can be indirect.

Assay [1] addresses RHD3(ΔAIM1) in the 3-in-1 BiFC vector (Arabidopsis) (UniProt P93042). The assay is described as follows: split reporter; 3-in-1 BiFC vector, agroinfiltrated N. benthamiana leaves (OD600 = 0.01), confocal images 72 h later; ER marked by mCherry-HDEL.
Assay [2] has as its target T1, RHD3 in the 3-in-1 BiFC vector (Arabidopsis) (UniProt P93042).
T1 sequence: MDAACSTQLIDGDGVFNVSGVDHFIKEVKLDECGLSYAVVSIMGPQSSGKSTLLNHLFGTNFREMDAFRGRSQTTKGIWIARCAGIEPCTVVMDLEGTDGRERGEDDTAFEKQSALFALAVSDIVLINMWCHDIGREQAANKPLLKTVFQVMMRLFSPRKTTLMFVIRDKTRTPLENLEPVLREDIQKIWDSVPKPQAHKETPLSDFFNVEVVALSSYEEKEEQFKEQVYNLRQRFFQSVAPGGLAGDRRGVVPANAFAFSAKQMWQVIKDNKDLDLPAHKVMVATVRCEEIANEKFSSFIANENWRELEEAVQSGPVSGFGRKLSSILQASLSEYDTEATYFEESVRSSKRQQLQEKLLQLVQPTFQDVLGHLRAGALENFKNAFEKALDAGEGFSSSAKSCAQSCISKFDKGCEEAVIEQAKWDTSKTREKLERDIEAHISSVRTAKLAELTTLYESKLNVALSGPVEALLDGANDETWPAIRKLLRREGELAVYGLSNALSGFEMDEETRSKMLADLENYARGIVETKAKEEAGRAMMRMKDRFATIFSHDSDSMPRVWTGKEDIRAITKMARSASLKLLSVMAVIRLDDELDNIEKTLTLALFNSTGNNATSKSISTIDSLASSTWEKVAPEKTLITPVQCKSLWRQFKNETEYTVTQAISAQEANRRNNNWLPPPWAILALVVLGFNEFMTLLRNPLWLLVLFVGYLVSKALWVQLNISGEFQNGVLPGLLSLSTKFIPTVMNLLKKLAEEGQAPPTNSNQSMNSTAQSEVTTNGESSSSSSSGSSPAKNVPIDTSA
The description is as above.

In the case of “ATG8e in the 3-in-1 BiFC vector (from UniProt Q8S926 1-118)”, in assay [1], the binding result was “no binding”.
p24 in the 3-in-1 BiFC vector: the binding entry in assay [2] is listed as “no binding”.
